# Results deposited as PubChem BioAssay AID1224828 (NIAID, 2016)
# Assay: 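Knock-downs that increase or decrease LPS-induced p65 nuclear translocation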 (primary screen)
# Cells: mouse RAW264.7 G9 macrophage reporter cells (GFP-p65, Tnf promoter-mCherry)
# Reagents: siRNA pool against mouse genes, 100 nM
# Timing: 2 days siRNA transfection, then 40 min LPS before fixation
# Challenge: LPS (Salmonella minnesota R595) at 10 ng/ml
# Read-out: 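Microscopy ratio of nuclear to perinuclear-ring GFP-p65 signal, scaled to the plate median; gene score is the average of two replicate robust z-scores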
# Direction: p65 translocation robust z-score: higher = more nuclear NF-kappaB p65 after LPS than the plate median; nuclear/cytoplasmic p65 ratio: higher = more nuclear NF-kappaB p65
# Call rule: 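Active if robust z is above 3.3 (negative regulators) or below -1.56, the Tlr4 control median (positive regulators); activity score 50 or more; control wells not called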
# Calls: active = hit (p65 shift raised or lowered); inactive = no clear change
# Here is a random part of about 17,000 reagents tested. Of all reagents, 762 (4.5%) are marked active. 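Active calls include both raised and lowered p65 entry, mostly lowered; wells with fewer than 50 cells lack a z-score.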 The raw values are shown without normalisation. No sequences are given here.
gene,p65 translocation robust z-score,"nuclear/cytoplasmic p65 ratio, rep 1","nuclear/cytoplasmic p65 ratio, rep 2",low cell count flag,Outcome
Npy5r (neuropeptide Y receptor Y5),1.83,1.67,1.95,enough cells to score,inactive
Alkbh7 (alkB homolog 7),,1.32,1.24,fewer than 50 cells per well; well left out of scoring,inactive
"Sned1 (sushi, nidogen and EGF-like domains 1)",0.99,1.55,1.14,enough cells to score,inactive
Hibch (3-hydroxyisobutyryl-Coenzyme A hydrolase),-0.46,1.42,1.28,enough cells to score,inactive
Scrib (scribbled planar cell polarity),-0.44,1.36,1.17,enough cells to score,inactive
Etaa1 (Ewing tumor-associated antigen 1),,1.3,1.32,fewer than 50 cells per well; well left out of scoring,inactive
Ccz1 (CCZ1 vacuolar protein trafficking and biogenesis associated),-1.74,1.2,1.42,enough cells to score,active
Plpp1 (phospholipid phosphatase 1),0,1.46,1.44,enough cells to score,inactive
Mns1 (meiosis-specific nuclear structural protein 1),1.33,1.91,1.87,enough cells to score,inactive
Crct1 (cysteine-rich C-terminal 1),,1.26,1.6,fewer than 50 cells per well; well left out of scoring,inactive
Or1r1 (olfactory receptor family 1 subfamily JRmember 1),,1.14,1.3,fewer than 50 cells per well; well left out of scoring,inactive
Cd72 (CD72 antigen),-0.44,1.44,1.32,enough cells to score,inactive
Far1 (fatty acyl CoA reductase 1),,1.28,1.19,fewer than 50 cells per well; well left out of scoring,inactive
Fuom (fucose mutarotase),-0.99,1.25,1.31,enough cells to score,inactive
Il17rb (interleukin 17 receptor B),-0.44,1.39,1.35,enough cells to score,inactive
Chrna1 (cholinergic receptor nicotinic alpha 1 subunit),0.34,1.52,1.41,enough cells to score,inactive
Scaper (S phase cyclin A-associated protein in the ER),-0.02,1.44,1.22,enough cells to score,inactive
Rnf114 (ring finger protein 114),,1.42,1.19,fewer than 50 cells per well; well left out of scoring,inactive
"Rnls (renalase, FAD-dependent amine oxidase)",-0.72,1.3,1.47,enough cells to score,inactive
Cmtr1 (cap methyltransferase 1),,1.38,1.45,fewer than 50 cells per well; well left out of scoring,inactive
Tex47 (testis expressed 47),1.76,1.47,1.48,enough cells to score,inactive
Cdc27 (cell division cycle 27),,1.4,1.73,fewer than 50 cells per well; well left out of scoring,inactive
Sst (somatostatin),,1.23,1.44,fewer than 50 cells per well; well left out of scoring,inactive
Fxyd7 (FXYD domain-containing ion transport regulator 7),1.68,1.85,1.68,enough cells to score,inactive
Orai1 (ORAI calcium release-activated calcium modulator 1),,1.25,1.28,fewer than 50 cells per well; well left out of scoring,inactive
Krt84 (keratin 84),-0.58,1.25,1.55,enough cells to score,inactive
Bphl (biphenyl hydrolase like),0.39,1.73,1.62,enough cells to score,inactive
Gramd4 (GRAM domain containing 4),0.81,1.75,1.92,enough cells to score,inactive
"Plcg1 (phospholipase C, gamma 1)",1.42,1.66,1.62,enough cells to score,inactive
"Fntb (farnesyltransferase, CAAX box, beta)",1.97,1.66,1.66,enough cells to score,inactive
Trhde (TRH-degrading enzyme),-0.43,1.36,1.62,enough cells to score,inactive
Slc7a2,1.52,1.61,1.41,enough cells to score,inactive
Fxn (frataxin),-0.66,1.47,1.39,enough cells to score,inactive
Edn3 (endothelin 3),0.44,1.58,1.41,enough cells to score,inactive
Cavin1 (caveolae associated 1),,1.33,1.31,fewer than 50 cells per well; well left out of scoring,inactive
Fsd1l (fibronectin type III and SPRY domain containing 1-like),0.42,1.47,1.59,enough cells to score,inactive
Mterf1a (mitochondrial transcription termination factor 1a),-0.5,1.56,1.52,enough cells to score,inactive
AY074887 (cDNA sequence AY074887),0.24,1.76,1.57,enough cells to score,inactive
Impg2 (interphotoreceptor matrix proteoglycan 2),-0.93,1.52,1.32,enough cells to score,inactive
Retnla (resistin like alpha),-0.26,1.38,1.19,enough cells to score,inactive
Elmod2 (ELMO/CED-12 domain containing 2),-0.15,1.47,1.46,enough cells to score,inactive
Tnn (tenascin N),-0.89,1.28,1.09,enough cells to score,inactive
Neil3 (nei like 3 (E. coli)),-0.15,1.5,1.82,enough cells to score,inactive
Pcm1 (pericentriolar material 1),1.34,1.59,1.62,enough cells to score,inactive
Rheb (Ras homolog enriched in brain),-0.08,1.46,1.55,enough cells to score,inactive
Tssk4 (testis-specific serine kinase 4),-1.03,1.42,1.34,enough cells to score,inactive
E2f5 (E2F transcription factor 5),0.61,1.61,1.41,enough cells to score,inactive
"H2-DMb2 (histocompatibility 2, class II, locus Mb2)",0.35,1.45,1.45,enough cells to score,inactive
"Lin7b (lin-7 homolog B, crumbs cell polarity complex component)",0.14,1.72,1.58,enough cells to score,inactive
Ifngr2 (interferon gamma receptor 2),-0.36,1.44,1.28,enough cells to score,inactive
Tgm6 (transglutaminase 6),1.09,1.53,1.66,enough cells to score,inactive
Il36a (interleukin 36A),-0.55,1.56,1.28,enough cells to score,inactive
"Psmd14 (proteasome (prosome, macropain) 26S subunit, non-ATPase, 14)",,1.45,1.34,fewer than 50 cells per well; well left out of scoring,inactive
"Cyp2d10 (cytochrome P450, family 2, subfamily d, polypeptide 10)",-0.07,1.51,1.84,enough cells to score,inactive
Syn3 (synapsin III),,1.28,1.32,fewer than 50 cells per well; well left out of scoring,inactive
"C1qc (complement component 1, q subcomponent, C chain)",-0.76,1.48,1.52,enough cells to score,inactive
Klhdc7a (kelch domain containing 7A),-0.33,1.47,1.55,enough cells to score,inactive
Anxa13 (annexin A13),0.49,1.72,1.67,enough cells to score,inactive
Zfta (zinc finger translocation associated),,1.77,1.69,fewer than 50 cells per well; well left out of scoring,inactive
